Reference: PubChem BioAssay AID1259424 (University of Nebraska Medical Center, 2018)

Purpose: 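Find knockdowns that reproduce the expression shifts seen after KSR1 loss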 (primary screen)
Cell system: human HCT116 colon cancer cells
Reagent: siRNA pool against human genes, 50 nM
Measured: 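Six signature mRNAs by branched-DNA multiplex assay, scaled to two housekeeping genes and non-targeting median, log2; matched to mean KSR1 knockdown profile by Pearson correlation and euclidean distance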
Reading the numbers: mean correlation with KSR1 profile: higher = expression change more like KSR1 knockdown
Here is a random part of about 14,000 reagents tested. 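Higher correlation or smaller distance means closer resemblance to KSR1 loss; control wells, including KSR1 knockdowns, recur on many plates.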 Further read-outs or replicates are left out here. Not given: the time to read-out.

OTUD6B (OTU deubiquitinase 6B) — mean correlation with KSR1 profile = -0.204
FAR1 (fatty acyl-CoA reductase 1) — mean correlation with KSR1 profile = 0.95
ACAD10 (acyl-CoA dehydrogenase family member 10) — mean correlation with KSR1 profile = -0.425
ASMT (acetylserotonin O-methyltransferase) — mean correlation with KSR1 profile = 0.218
DPH1 (diphthamide biosynthesis 1) — mean correlation with KSR1 profile = 0.00394
NTSR2 (neurotensin receptor 2) — mean correlation with KSR1 profile = -0.218
LIFR (LIF receptor subunit alpha) — mean correlation with KSR1 profile = 0.116
DCK (deoxycytidine kinase) — mean correlation with KSR1 profile = -0.346
PRELID3A (PRELI domain containing 3A) — mean correlation with KSR1 profile = 0.35
ACTR10 (actin related protein 10) — mean correlation with KSR1 profile = 0.858
SMPDL3B (sphingomyelin phosphodiesterase acid like 3B) — mean correlation with KSR1 profile = -0.519
LMO1 (LIM domain only 1) — mean correlation with KSR1 profile = 0.133
GPR132 (G protein-coupled receptor 132) — mean correlation with KSR1 profile = 0.318
ENTPD7 (ectonucleoside triphosphate diphosphohydrolase 7) — mean correlation with KSR1 profile = 0.759
KRT15 (keratin 15) — mean correlation with KSR1 profile = -0.68
CCNJ (cyclin J) — mean correlation with KSR1 profile = 0.00172
AK7 (adenylate kinase 7) — mean correlation with KSR1 profile = -0.0675
JAM3 (junctional adhesion molecule 3) — mean correlation with KSR1 profile = 0.829
SVEP1 — mean correlation with KSR1 profile = 0.758
AP3M1 (adaptor related protein complex 3 subunit mu 1) — mean correlation with KSR1 profile = 0.00391
TMEM97 (transmembrane protein 97) — mean correlation with KSR1 profile = -0.438
PRDM11 (PR/SET domain 11) — mean correlation with KSR1 profile = 0.328
PAX9 (paired box 9) — mean correlation with KSR1 profile = 0.773
ALKBH2 (alkB homolog 2, alpha-ketoglutarate dependent dioxygenase) — mean correlation with KSR1 profile = -0.0279
CDK10 (cyclin dependent kinase 10) — mean correlation with KSR1 profile = -0.0115
PGRMC2 (progesterone receptor membrane component 2) — mean correlation with KSR1 profile = -0.0153
SLC30A9 — mean correlation with KSR1 profile = 0.000238
DAPK3 (death associated protein kinase 3) — mean correlation with KSR1 profile = -0.13
